Reference: patent US8524666
These are yes or no findings as the source states them, for the method shown. In cells and extracts the contact can be indirect. Some binding calls cover weakened binding; strength is not graded here.

Sequences of proteins named here, by UniProt entry; tags and fusion partners are left off. A change or cut given only in a name is not applied to a line headed by its entry. Residues count along the entry.
UniProt P08670: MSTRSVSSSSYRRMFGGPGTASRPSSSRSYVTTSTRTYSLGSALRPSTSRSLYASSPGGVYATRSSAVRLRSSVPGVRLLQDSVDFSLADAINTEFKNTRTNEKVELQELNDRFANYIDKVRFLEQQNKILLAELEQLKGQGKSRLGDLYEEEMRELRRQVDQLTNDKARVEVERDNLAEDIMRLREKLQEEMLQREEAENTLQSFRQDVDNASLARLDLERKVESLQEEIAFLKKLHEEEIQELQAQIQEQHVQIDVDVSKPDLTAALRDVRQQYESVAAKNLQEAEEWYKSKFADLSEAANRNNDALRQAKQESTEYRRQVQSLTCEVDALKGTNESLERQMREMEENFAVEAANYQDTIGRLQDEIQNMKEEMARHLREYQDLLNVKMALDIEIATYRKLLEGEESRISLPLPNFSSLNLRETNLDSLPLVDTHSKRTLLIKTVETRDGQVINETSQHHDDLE
UniProt P16070, residues 21-132: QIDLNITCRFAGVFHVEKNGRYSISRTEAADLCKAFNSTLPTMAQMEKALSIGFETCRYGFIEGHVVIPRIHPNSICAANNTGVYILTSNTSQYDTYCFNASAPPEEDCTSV

Experiments:
[1] = molecular target: endogenous vimentin of HUVEC (human) (UniProt P08670); assay: GST pull-down from HUVEC membrane lysate, western blot with mAb V9; also silver staining and peptide mass fingerprinting
[2] = molecular target: endogenous vimentin of HUVEC (human) (UniProt P08670); assay: GST pull-down from HUVEC lysate
[3] = molecular target: endogenous vimentin of HUVEC (human) (UniProt P08670); assay: GST pull-down from surface-biotinylated HUVEC lysate, then streptavidin precipitation and western blot with mAb V9
[4] = molecular target: full length human vimentin expressed from pcDNA3.1/MycHis B in MCF-7 cells (human) (UniProt P08670); assay: GST pull-down from transfected MCF-7 lysate, western blot
[5] = molecular target: vimentin deletion mutant containing aa 1-245 of SEQ ID NO: 1 (human) (UniProt P08670); assay: as above
[6] = molecular target: endogenous vimentin of HUVEC (human) (UniProt P08670); assay: GST pull-down from HUVEC membrane lysate, western blot with mAb V9

Measured: binding

GST tagged CD44-HABD R41AR78SY79S mutant (CD44-3MUT) (from UniProt P16070 21-132)
binds: [1] | [2] | [3] | [4] | [5]

GST-tagged CD44 hyaluronic acid binding-domain (CD44-HABD) (from UniProt P16070 21-132)
binds: [6] | [2] | [4] | [5]
